Assay results taken from article PMC6902597.
These are yes or no findings as the source states them, for the method shown. Binding seen in cells or lysates may run through a third protein. Some results given as binding are weak or reduced against the parent protein; the word gives no strength. Tags and fused reporters may be left off the sequences shown. Values belong to the binder of their own block, whether it stands above or below them.

The chains behind the UniProt entries cited, without tags or fusion partners.
UniProt Q61473: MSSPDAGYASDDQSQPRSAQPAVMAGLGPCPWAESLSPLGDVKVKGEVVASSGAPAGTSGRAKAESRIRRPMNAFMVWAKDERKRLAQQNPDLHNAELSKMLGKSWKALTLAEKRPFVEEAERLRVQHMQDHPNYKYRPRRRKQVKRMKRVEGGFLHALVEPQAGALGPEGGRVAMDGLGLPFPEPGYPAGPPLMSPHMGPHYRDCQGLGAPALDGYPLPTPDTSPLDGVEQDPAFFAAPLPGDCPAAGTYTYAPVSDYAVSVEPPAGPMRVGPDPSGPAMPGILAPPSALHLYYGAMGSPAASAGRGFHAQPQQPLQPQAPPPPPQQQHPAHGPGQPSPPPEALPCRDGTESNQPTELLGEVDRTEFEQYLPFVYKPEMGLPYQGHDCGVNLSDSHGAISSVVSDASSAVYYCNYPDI

Experiments:
Myc-Sox17, Q61473 [1] = assay: co-IP; TPC-1 cells transfected with Flag-TRIM30, Myc-Sox17 or HA-β-catenin for 48 h; Sox17/β-catenin co-IP with TRIM30 overexpressed; details: remark: other sources report otherwise
Myc-Sox17, Q61473 [2] = assay: co-IP; TPC-1 cells transfected with the indicated plasmids for 24 h; wild-type cells without rhIL-22, and TRIM30-/- cells with or without 50 ng/ml rhIL-22 for 24 h; details: remark: other sources report otherwise
[3] = biological target: Myc-tagged Sox17 (sex-determining region Y-box 17) (UniProt Q61473); assay: co-IP; 293T cells co-transfected for 48 h; lysis buffer 20 mM Tris pH 7, 0.5% Nonidet-P40, 25 mM NaCl; antibody or IgG and protein G-agarose overnight at 4 °C; co-IP and reverse co-IP; also with DNAase

- binding (Myc-Sox17, Q61473 [1]): binds
- binding (Myc-Sox17, Q61473 [2]): binds
B1: HA-β-catenin, Q02248 1-781 (protein)
chain: MATQADLMELDMAMEPDRKAAVSHWQQQSYLDSGIHSGATTTAPSLSGKGNPEEEDVDTSQVLYEWEQGFSQSFTQEQVADIDGQYAMTRAQRVRAAMFPETLDEGMQIPSTQFDAAHPTNVQRLAEPSQMLKHAVVNLINYQDDAELATRAIPELTKLLNDEDQVVVNKAAVMVHQLSKKEASRHAIMRSPQMVSAIVRTMQNTNDVETARCTAGTLHNLSHHREGLLAIFKSGGIPALVKMLGSPVDSVLFYAITTLHNLLLHQEGAKMAVRLAGGLQKMVALLNKTNVKFLAITTDCLQILAYGNQESKLIILASGGPQALVNIMRTYTYEKLLWTTSRVLKVLSVCSSNKPAIVEAGGMQALGLHLTDPSQRLVQNCLWTLRNLSDAATKQEGMEGLLGTLVQLLGSDDINVVTCAAGILSNLTCNNYKNKMMVCQVGGIEALVRTVLRAGDREDITEPAICALRHLTSRHQEAEMAQNAVRLHYGLPVVVKLLHPPSHWPLIKATVGLIRNLALCPANHAPLREQGAIPRLVQLLVRAHQDTQRRTSMGGTQQQFVEGVRMEEIVEGCTGALHILARDVHNRIVIRGLNTIPLFVQLLYSPIENIQRVAAGVLCELAQDKEAAEAIEAEGATAPLTELLHSRNEGVATYAAAVLFRMSEDKPQDYKKRLSVELTSSLFRTEPMAWNETADLGLDIGAQGEALGYRQDDPSYRSFHSGGYGQDALGMDPMMEHEMGGHHPGADYPVDGLPDLGHAQDLMDGLPPGDSNQLAWFDTDL

- binding [3]: binds
B2: Flag-tagged TRIM30 (tripartite-motif protein 30, TRIM30α) (protein, UniProt P15533 1-496)
chain: MASSVLEMIKEEVTCPICLELLKEPVSADCNHSFCRACITLNYESNRNTDGKGNCPVCRVPYPFGNLRPNLHVANIVERLKGFKSIPEEEQKVNICAQHGEKLRLFCRKDMMVICWLCERSQEHRGHQTALIEEVDQEYKEKLQGALWKLMKKAKICDEWQDDLQLQRVDWENQIQINVENVQRQFKGLRDLLDSKENEELQKLKKEKKEVMEKLEESENELEDQTELVRDLISDVEHHLELSTLEMLQGANCVLRRSQSLSLQQPQTVPQKRKRTFQAPDLKGMLQVYQGLMDIQQYWVHMTLHARNNAVIAINKEKRQIQYRSYNTVPVSEIYHLGVLGYPALSSGKHYWEVDISRSDAWLLGLNDGKCAQPQLHSKEEMGIKKNLHSQIKQNVLFQPKCGYWVIGMKNPSVYKAFDECSITHNSSILVISLPDRPSRVGVFLDRKAGTLSFYDVSNCGALIYRFYDPAFPVEVYPYFNPMKCSEPMTICGPPS

- binding [3]: no binding
B3: Flag-TRIM8 (protein, UniProt Q99PJ2 1-551)
chain: MAENWKNCFEEELICPICLHVFVEPVQLPCKHNFCRGCIGEAWAKDSGLVRCPECNQAYNQKPGLEKNLKLTNIVEKFNALHVEKPPTALHCVFCRRGPPLPAQKVCLRCEAPCCQSHVQTHLQQPSTARGHLLVEADDVRAWSCPQHNAYRLYHCEAEQVAVCQYCCYYSGAHQGHSVCDVEIRRNEIRKMLMKQQERLEEREQDIEDQLYKLESDKRLVEEKVSQLKEEVRLQYEKLHQLLDEDLRQTVEVLDKAQAKFCSENAAQALHLGERMQEAKKLLGSLQRLFDKTEDVGFMKNTKSVKILMDRTQTCTGSSLSPPKIGHLNSKLFLNEVAKKEKQLRKMLEGPFSTPVPFLQSVPLYPCGVNSSGAEKRKHSTAFPEASFLETSSGPVGGQYGAAGTASSEGQSGQPLGPCSSTQHLVALPGGTQPVHSSPVFPPSQYPNGSTTQQPMLPQYGGRKILVCSVDNCYCSSVANHGGHQPYPRSGHFPWTVPSQEYSHPLPPTPSVPQSLPGLAVRDWLDASQQPGHQDFYRVYGQPSTKHYVTS
